No constants are given. Whether binding was seen depends on the method and setting. Some binding calls cover weakened binding; strength is not graded here.

B1: anti-PVRIG antibody 20 (antibody, human IgG4 S228P, F234A L235A, V domains shown)
VH: DVQLVESGGGSVQAGGSLRLSCVASRYTSRTDCMGWFRQAPGKEHEGVAHIDSDGIPRYVDSVKGRFTISQDHAKNTLYLQMNSLKPEDSATYYCVVGFKFDDDYCAPNDWGQGTQVTVSS
B2: anti-PVRIG antibody 151 (antibody, human IgG4 S228P, F234A L235A, V domains shown)
VH: HVQLVESGGGSVQAGGSLRLSCVASASGFTYRPYCMAWFRQAPGKEREAVAGIDIFGGTTYADSVKGRFTASRDNAGFSLFLQMNDLKPEDTAMYYCAAGDSPDGRCPPLGQGLNYWGQGTQVTVSS
B3: anti-PVRIG antibody 38 (antibody, human IgG4 S228P, F234A L235A, V domains shown)
VH: QVQLVESGGGSVQAGGSLRLSCAASPSTYGPSDMAWFRQAPGKQREGVATISAAGRLTYYTDSVRGRFTISRDNAKNTMYLQMNSLKPEDTAMYYCAADFAGGSSLFADYKYWGQGTQVTVSS
B4: anti-PVRIG antibody 30 (antibody, human IgG4 S228P, F234A L235A, V domains shown)
VH: HVQLVESGGGSVQAGGSLRLSCEASGYSYSGDCMGWFRRAPGKERDEGVATIDNAGRIKYADSVKGRFTISHGNGKYILYLQMNSLKPEDTDMYYCAAGWTFGGNCSPADWGQGTQVTVSS
B5: anti-PVRIG antibody 39 (antibody, human IgG4 S228P, F234A L235A, V domains shown)
VH: QVQLVESGGGSVQAGGSLRLSCAASRYTSRTDCMGWFRQAPGKEREGVAHIDSDGIPRYVESVKGRFTISQDHAKNTLYLQMNSLKPEDSATYYCVVGFKFGDYCAPNDWGQGTQVTVSS

The first test addresses cynomolgus monkey PVRIG expressed on cells (cynomolgus monkey). The test is described as follows: FACS, HEK293 cells overexpressing target.
As to B1, the binding entry is given as “binds”. On the same count and under the same terms, the value for B2 was “binds”; that for B3 was “binds”. On the same count and under the same terms, the value for B4 was “binds”; that for B5 was “binds”.

For a further test the target is unchanged. Description: FACS, HEK293 cells overexpressing target; N.A. = binding too strong to fit EC50. (A flow cytometer gives signals particle by particle.)
Take B1: the binding result was “binds”.

Values taken from patent US20240376207A1.
